Test results from PubChem BioAssay AID624297 (National Center for Advancing Translational Sciences (NCATS), 2012).
The campaign covered roughly 340,000 compounds. About 6,200 (1.8%) were called active. This list was built around the results that the source calls inconclusive (neither active nor inactive); the mix of calls is not that of the screen. Calls come from the whole dose curve; as a rule, active = well fitted activation curve with a large enough effect; inconclusive = small, poorly fitted or top-dose-only effect; inactive = no such curve, though single readings can be large or run the other way. A potency beside an inconclusive call is a rough fit, not a confirmed value.

Assay: A quantitative high throughput screen for small molecules that induce DNA re-replication in SW480 colon adenocarcinoma cells. For re-replication activation: % of control where 0% means no effect. Note: nearly all actives have a fitted effect of over 55% in size.
Details: Hoechst DNA content imaging, 48 h; re-replication activation: at 46.1 µM (top of the series) unless noted
Procedure, shortened: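 DNA re-replication was detected as more nuclei of elevated Hoechst intensity after 48 hr exposure to compound (23 nL pinned per well of 250 cells).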
Potency is the fitted concentration of half-maximal effect.

SMILES	Potency	re-replication activation
Cc1ccc(C#CC[N+]2(C)CCCCC2)cc1	inconclusive: 3.66 µM [activator, single point]	–
CC(=O)C1CCC2C3CC=C4CC(SC(=N)N)CCC4(C)C3CCC12C (stereo not given)	inconclusive: 20.6 µM [activator, single point]	–
Brc1ccc(-c2csc(-c3c[nH]c4ccccc34)n2)cc1	–	inactive: 1.74%
COc1ccccc1N(C)S(=O)(=O)c1ccc(Cl)c(C(=O)OCc2c(C)noc2C)c1	inconclusive: 4.61 µM [activator, full curve, poor fit]	–
Cc1cc(=O)[nH]c2c1c(C)nn2C1CCCCC1	active: 8.2 µM	–
COc1cc(C(=O)OCC(=O)c2cc(C)n(C)c2C)cc(OC)c1OC	inconclusive: 20.6 µM [activator, single point]	–
CC1=NN(C(=O)c2ccccc2Br)C(O)(c2cccnc2)C1 (stereo not given)	inconclusive: 29.1 µM [activator, single point]	–
CCn1c2ccccc2c2cc(NC(=O)C(=O)NCC3CCCO3)ccc21 (stereo not given)	inconclusive: 3.66 µM [activator, partial curve, poor fit]	–
COc1ccc(S(=O)(=O)Nc2cc3c4c(c2)C(C)C(=O)N4CCC3)cc1OC (stereo not given)	–	inactive: -581%
COc1ccc(CCNc2ccc([N+](=O)[O-])cn2)cc1	inconclusive: 0.058 µM [activator, full curve, poor fit]	–
Nc1[nH]nc2c1NN(c1ccc(Cl)cc1Cl)N2	inconclusive: 16.4 µM [activator, single point]	–
O=C(N/N=C/c1cc([N+](=O)[O-])ccc1O)Nc1ccccc1	inconclusive: 29.1 µM [activator, single point]	–
O=C(N/N=C/c1cccc([N+](=O)[O-])c1)c1cc2ccccc2o1	inconclusive: 29.1 µM [activator, single point]	–
CCN1CCN(c2nc3ccccc3nc2NS(=O)(=O)c2ccc(NC(C)=O)cc2)CC1	–	inactive: -4.01%
CCOC(=O)C1Cc2ccccc2C(=O)O1 (stereo not given)	inconclusive: 0.0052 µM [activator, full curve, poor fit]	–
O=c1cc(-c2ccncc2)oc2ccccc12	–	inactive: -5.21%
O=C(O)c1cccc(N/N=C/C2=C(Cl)c3cc(Cl)ccc3SC2)c1	–	inactive: -1.14%
O=C(Nc1ccc(F)cc1)Nc1cc(OCC(F)(F)F)cc(OCC(F)(F)F)c1	inconclusive: 20.6 µM [activator, single point]	–
COc1ccc(C(=O)/C=C/c2ccc(OC)cc2OC)c(O)c1	inconclusive: 9.2 µM [activator, partial curve, poor fit]	–
CC(=O)Oc1ccc(N(c2ccccc2)S(=O)(=O)c2ccc(C)cc2)cc1	inconclusive: 29.1 µM [activator, single point]	–

Look-ups from the results shown:
Under Potency, `O=C(N/N=C/c1cccc([N+](=O)[O-])c1)c1cc2ccccc2o1` has the entry inconclusive: 29.1 µM [activator, single point]
Under re-replication activation, `O=c1cc(-c2ccncc2)oc2ccccc12` has the entry inactive: -5.21%
